# Measured values as given in patent US20220235129A1.
# Amino acid sequences for entries named in this document (tags omitted). A change or cut given only in a name is not applied to a line headed by its entry. Chains listed by the source or under a name are the forms on record and can include a tag or linker.
# CLDN18.2-Flag (P56856, form named): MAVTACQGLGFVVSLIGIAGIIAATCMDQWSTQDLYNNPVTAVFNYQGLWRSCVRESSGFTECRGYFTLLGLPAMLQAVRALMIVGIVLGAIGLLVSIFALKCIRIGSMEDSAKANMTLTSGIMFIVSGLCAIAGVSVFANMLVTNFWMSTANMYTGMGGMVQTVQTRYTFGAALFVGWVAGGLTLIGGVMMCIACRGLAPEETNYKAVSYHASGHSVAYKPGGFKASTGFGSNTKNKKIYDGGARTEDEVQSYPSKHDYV
# These are yes or no findings as the source states them, for the method shown. Some binding calls cover weakened binding; strength is not graded here.
# B1: 18.2-A6 (antibody, human IgG1, kappa, V domains shown)
# VH: EVQLVQSGAEVKKPGASVKVSCKASGYTFTSYWLGWVRQAPGQGLEWIGIIYPSDSYTNYNQKFKDRATLTVDKSTSTAYMELSSLRSEDTAVYYCTRFWRGNSFDYWGQGTLVTVSS
# VL: DIVMTQSPDSLTIGLGERATINCKSSQSLLNSGNQKNYLTWYQQKPGQPPKLLIYWAAGKESGVPDRFSGSGSGTDFTLTISSLQAEDVAVYYCQNGYSHPFTFGQGTKVEIKR
# Biological target: CLDN18.2-Flag (human) (UniProt P56856)
# Experiment: flow cytometry on 293t cells transiently expressing CLDN18.2-Flag, 10 µg/ml antibody
binder,measurement,value
B1,binding,binds
